Values from PubChem BioAssay AID504764 (Drosophila RNAi Screening Center, 2011)

Aim: 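Knock-downs that raise or lower a Notch target reporter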 (primary screen)
System: Drosophila Kc167 cells
Reagents: long dsRNA against Drosophila genes
Duration: about 5 days (4 days dsRNA, then 24 h after transfection)
Challenge: transfection of constitutively active membrane-tethered Notch lacking the extracellular domain, read 24 h later
Read-out: 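Firefly luciferase from an E(spl)m3 reporter with active Notch, plus control-promoter and uninduced reporter wells for normalisation; unnormalised counts, duplicate wells a and b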
Scale: induced reporter light, run 1, well a and induced reporter light, run 1, well b: higher = more light from the Notch target reporter with active Notch; control promoter light, run 1, well a and control promoter light, run 1, well b: higher = more light from the viral control promoter (cell number, transfection, viability); uninduced reporter light, run 1, well a: higher = more light from the Notch target reporter without active Notch
Active means: 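Wells with low control signal or poorly matching duplicates excluded; duplicates averaged; per source plate, z beyond ±2 for induced/control log2 ratio or beyond ±1.8 for induced/uninduced marks a hit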
Calls: active = modifier hit (raised or lowered Notch signal); inactive = not a hit
The screen tested about 22,000 reagents; this is an unselected part of those with a known target gene and a result. Over the whole deposit, 403 (1.9%) were called active. 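Unnormalised raw counts per well; ratio z-scores behind the hit calls and whether each hit raises or lowers signal are not deposited.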 The numbers tell different reagents against one gene apart. The record does not give: the amount of reagent.

no.	predicted target	dsRNA no.	induced reporter light, run 1, well a	induced reporter light, run 1, well b	control promoter light, run 1, well a	control promoter light, run 1, well b	uninduced reporter light, run 1, well a	Call
1	CG3199	1	3.16e5	2.73e5	2.38e5	2.85e5	22370	inactive
2	CG3706	1	1.34e5	1.16e5	2.61e5	2.41e5	11678	inactive
3	Exo84 (Exocyst 84)	1	1.12e5	1.46e5	1.78e5	1.91e5	10690	inactive
4	Fatp2 (Fatty acid transport protein 2)	1	1.15e5	1.04e5	89475	1.27e5	8925	inactive
5	Fatp2 (Fatty acid transport protein 2)	2	1.80e5	1.67e5	1.41e5	1.47e5	13380	inactive
6	Fatp2 (Fatty acid transport protein 2)	3	1.68e5	1.37e5	1.44e5	1.35e5	12040	inactive
7	ND-B17.2 (NADH dehydrogenase (ubiquinone) B17.2 subunit)	1	1.32e5	1.44e5	1.15e5	66975	9330	inactive
8	RNaseZ (Ribonuclease Z)	1	1.74e5	1.11e5	1.94e5	1.89e5	14800	inactive

Continued (2 carried over from the part before).
no.	predicted target	dsRNA no.	induced reporter light, run 1, well a	induced reporter light, run 1, well b	control promoter light, run 1, well a	control promoter light, run 1, well b	uninduced reporter light, run 1, well a	Call
7	ND-B17.2 (NADH dehydrogenase (ubiquinone) B17.2 subunit)	1	1.32e5	1.44e5	1.15e5	66975	9330	inactive
8	RNaseZ (Ribonuclease Z)	1	1.74e5	1.11e5	1.94e5	1.89e5	14800	inactive
9	CG14613	1	1.18e5	88520	1.07e5	45160	8505	inactive
10	TbCMF46	1	1.46e5	1.94e5	80120	1.22e5	19640	inactive
11	ea (easter)	1	2.12e5	1.93e5	1.61e5	2.05e5	15295	inactive
12	CG13047	1	1.77e5	1.44e5	2.64e5	2.03e5	7628	inactive
13	CG17147	1	52005	53895	50520	53480	2805	inactive
14	milt (milton)	1	1.10e5	79115	1.35e5	1.24e5	7510	inactive
15	milt (milton)	2	83670	99645	1.16e5	1.26e5	7640	inactive
16	milt (milton)	3	1.46e5	1.40e5	1.78e5	1.75e5	11878	inactive
17	Rga (Regena)	1	91570	1.14e5	87730	73715	6520	inactive
18	CG33458	1						active
19	Rbp1-like	1	1.48e5	1.31e5	2.54e5	2.41e5	11105	inactive
20	CG11409	1	1.77e5	2.30e5	2.49e5	2.29e5	13885	inactive
